Experimental data: patent publication US10858367B2, “Compounds” (GLAXOSMITHKLINE INTELLECTUAL PROPERTY DEVELOPMENT LIMITED, priority 2017, dated 2020)
Some entries share one result that the patent states for a list of compounds.

By UniProt entry, the sequences of proteins in these tests, tags left out. Chains listed by the source or under a name are the forms on record and can include a tag or linker.
UniProt Q5S007, with tags, fused parts or gaps R50H: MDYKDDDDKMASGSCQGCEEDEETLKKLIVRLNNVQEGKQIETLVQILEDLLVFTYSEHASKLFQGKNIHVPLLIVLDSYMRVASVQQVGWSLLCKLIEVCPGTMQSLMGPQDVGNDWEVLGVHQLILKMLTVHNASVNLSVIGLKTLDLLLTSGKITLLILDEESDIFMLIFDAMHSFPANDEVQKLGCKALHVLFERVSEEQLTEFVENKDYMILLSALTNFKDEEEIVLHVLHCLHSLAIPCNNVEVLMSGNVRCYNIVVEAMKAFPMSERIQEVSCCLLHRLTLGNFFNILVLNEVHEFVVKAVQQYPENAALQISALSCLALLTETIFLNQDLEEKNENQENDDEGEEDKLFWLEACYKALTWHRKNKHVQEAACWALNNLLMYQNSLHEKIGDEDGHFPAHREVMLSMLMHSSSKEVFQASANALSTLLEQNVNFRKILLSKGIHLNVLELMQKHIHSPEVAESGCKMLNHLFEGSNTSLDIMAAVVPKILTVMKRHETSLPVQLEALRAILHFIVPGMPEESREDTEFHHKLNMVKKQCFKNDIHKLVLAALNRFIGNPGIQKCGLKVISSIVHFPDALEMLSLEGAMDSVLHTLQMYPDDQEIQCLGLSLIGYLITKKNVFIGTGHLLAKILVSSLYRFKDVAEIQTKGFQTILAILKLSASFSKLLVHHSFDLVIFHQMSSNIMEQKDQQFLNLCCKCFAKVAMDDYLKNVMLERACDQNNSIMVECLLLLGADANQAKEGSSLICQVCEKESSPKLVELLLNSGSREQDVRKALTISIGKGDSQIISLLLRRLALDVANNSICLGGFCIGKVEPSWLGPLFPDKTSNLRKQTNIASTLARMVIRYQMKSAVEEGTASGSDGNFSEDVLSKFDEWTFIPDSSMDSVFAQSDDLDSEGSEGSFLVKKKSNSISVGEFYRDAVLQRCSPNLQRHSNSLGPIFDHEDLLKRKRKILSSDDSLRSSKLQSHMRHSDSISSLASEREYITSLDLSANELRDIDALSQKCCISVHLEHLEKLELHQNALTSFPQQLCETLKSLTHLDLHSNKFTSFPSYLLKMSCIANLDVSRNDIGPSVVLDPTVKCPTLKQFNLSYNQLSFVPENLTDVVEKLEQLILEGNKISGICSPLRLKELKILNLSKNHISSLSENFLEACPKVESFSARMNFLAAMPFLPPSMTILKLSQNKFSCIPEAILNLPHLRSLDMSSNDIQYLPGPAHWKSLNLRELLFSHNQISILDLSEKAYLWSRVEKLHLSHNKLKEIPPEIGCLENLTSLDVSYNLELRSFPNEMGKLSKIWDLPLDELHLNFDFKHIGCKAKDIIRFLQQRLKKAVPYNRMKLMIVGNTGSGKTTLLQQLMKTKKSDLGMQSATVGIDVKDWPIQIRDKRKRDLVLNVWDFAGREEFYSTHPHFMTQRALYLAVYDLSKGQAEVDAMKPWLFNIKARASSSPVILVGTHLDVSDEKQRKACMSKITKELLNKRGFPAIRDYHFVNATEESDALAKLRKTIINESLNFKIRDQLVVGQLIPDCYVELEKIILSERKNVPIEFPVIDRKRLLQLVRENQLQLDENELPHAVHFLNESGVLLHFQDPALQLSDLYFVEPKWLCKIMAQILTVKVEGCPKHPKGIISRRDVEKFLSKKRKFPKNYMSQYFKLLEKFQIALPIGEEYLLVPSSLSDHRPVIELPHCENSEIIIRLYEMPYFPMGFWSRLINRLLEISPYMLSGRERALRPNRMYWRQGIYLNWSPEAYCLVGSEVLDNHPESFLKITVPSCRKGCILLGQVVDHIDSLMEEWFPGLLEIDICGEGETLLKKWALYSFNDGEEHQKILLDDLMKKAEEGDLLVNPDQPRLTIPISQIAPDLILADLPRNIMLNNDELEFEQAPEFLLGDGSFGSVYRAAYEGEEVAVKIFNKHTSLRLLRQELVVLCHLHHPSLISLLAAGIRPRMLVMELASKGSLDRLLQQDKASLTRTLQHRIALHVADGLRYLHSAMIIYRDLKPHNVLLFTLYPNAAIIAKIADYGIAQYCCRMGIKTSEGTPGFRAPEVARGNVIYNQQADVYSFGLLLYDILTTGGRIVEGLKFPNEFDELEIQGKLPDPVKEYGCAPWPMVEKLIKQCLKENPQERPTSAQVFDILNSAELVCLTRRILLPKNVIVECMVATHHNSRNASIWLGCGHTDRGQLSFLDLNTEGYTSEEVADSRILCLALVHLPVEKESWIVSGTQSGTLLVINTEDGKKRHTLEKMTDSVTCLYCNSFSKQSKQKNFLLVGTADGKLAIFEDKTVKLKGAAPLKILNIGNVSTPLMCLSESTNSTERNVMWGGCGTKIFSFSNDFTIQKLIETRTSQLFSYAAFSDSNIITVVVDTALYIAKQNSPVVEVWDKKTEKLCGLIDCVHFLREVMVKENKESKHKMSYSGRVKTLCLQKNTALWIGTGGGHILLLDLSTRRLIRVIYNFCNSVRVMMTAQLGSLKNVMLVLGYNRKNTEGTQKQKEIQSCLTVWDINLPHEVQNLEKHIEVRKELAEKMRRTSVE

Molecular target: T1, full length G2019 human LRRK2 (Homo sapiens, UniProt Q5S007, R50H)
T1 construct: made in house; host or cells: HEK293 6E cells transduced with BacMam virus (virus generated in Sf9 cells)
Test: Full length G2019 human LRRK2 Inhibition Mass Spectrometry assay
Assay type: biochemical
Conditions: 25 nM LRRK2 enzyme, 25 uM LRRKtide, 2 mM ATP; RapidFire mass spectrometry
Text: a. Full Length G2019 Human LRRK2 Inhibition Mass Spectrometry Assay
This assay for Leucine Rich Repeat Kinase 2 (LRRK2) inhibition is based on the direct measurement of the peptide ‘LRRKtide’ (LRRKtide: RLGRDKYKT*LRQIRQ and “*” refers to the site of phosphorylation.) and phosphorylated ‘LRRKtide’ using a high throughput RapidFire mass spectrometry assay. Inhibitors are compounds that reduce the conversion of LRRKtide to phospho-LRRKtide.
Human G2019 LRRK2 Plasmid Preparation
Primers used for PCR cloning: • pHTBV-F:SEQ ID No: 1 • LRRK2 wt-F1:SEQ ID No: 2 • LRRK2 wt-R1: SEQ ID No: 3 • LRRK2 wt-F2: SEQ ID No: 4 • LRRK2 wt-R2: SEQ ID No: 5 • LRRK2 wt-F3:SEQ ID No: 6 • pHTBV-R: SEQ ID No: 7 pHTBV1-N-Flag-hu LRRK2 was generated by PCR amplifying the full length LRRK2 sequence with N terminal Flag tag from pcDNA3.1(+)_Human_LRRK2 (NCBI Reference Sequence: NP_940980.3) with the primers described above, and cloned into pHTBV1mcs3 vector between BamHI and KpnI sites.
The G2019 full length Flag-LRRK2 coding sequence is SEQ ID No: 8.
The translated amino acid sequence for human G2019 full length N terminal flag tagged LRRK2 protein is SEQ ID No: 9.
Protein Expression & Purification a) Expression of Flag Tagged Full Length G2019 Human LRRK2
HEK293 6E cells were incubated in a 37° C. incubator with a humidified atmosphere of 5% CO2 on an orbital shaker rotating at 110 rpm. On the day of transduction, the cell viability was higher than 98% and the cell density was in the range of 1×10^6˜1.5×10^6 cells/ml. HEK293 6E cells were centrifuged at 1,000 rpm for 10 min, and then the cells were resuspended in fresh Freestyle 293 expression medium (Invitrogen: 12338) with 0.1% F-68(Invitrogen: 24040-032) but without antibiotics (G418) at density of 1×10^6 cells/ml. BacMam virus with Flag-hu LRRK2 (genotypically normal) gene was centrifuged at 40,000 g for 2 hours, then resuspended in fresh Freestyle 293 expression medium. The resuspended virus was added into the cells in at MOI of 10. The cells were incubated in a 37° C. incubator with a humidified atmosphere of 5% CO2 in air on an orbital shaker rotating at 110 rpm. Cultures were harvested at approximately 48 hours post-transduction by centrifugation at 4,000 rpm for 20 min and pellets were frozen for purification. […]
b) Purification of Flag Tagged Full Length G2019 Human LRRK2
The suspended cells were lysed by sonication on ice for 30 min (2 secs on/4 sec off, 20% amplitude), and centrifuged at 10,000 rpm for 30 minutes at 4° C. The supernatant was incubated with 1 mL per litre of cell culture of anti-Flag magnetic beads (Sigma-Aldrich: M8823) at 4° C. for 3 hours, then the beads were washed by 5 mL (5 column volume) binding buffer (50 mM Tris pH7.5@ 4 C, 500 mM NaCl, 0.5 mM EDTA, 0.1% TritonX-100, 10% glycerol, freshly add 2 mM DTT) for three times. The Flag tagged LRRK2 proteins were eluted by Elution buffer (50 mM Tris pH7.5@ 4 C, 500 mM NaCl, 0.5 mM EDTA, 0.1% TritonX-100, 10% glycerol, freshly add 2 mM DTT, 250 ug/ml Flag peptide (Sigma-Aldrich:F3290)) at 4° C. for 2 hours. Flag peptide was removed by Zeba Spin Desalting Columns, 7K MWCO (Thermo-Fisher: 89893) and the buffer of eluted LRRK2 proteins was exchanged into Storage Buffer (50 mM Tris pH7.5@4 C, 150 mM NaCl, 0.5 mM EDTA, 0.02% Triton X-100, 2 mM DTT and 50% Glycerol) using Amicon Ultra Centrifugal Filter Units (100 kD) (Merck: UFC910096). Fractions containing LRRK2 proteins were pooled, aliquoted and stored at −80° C. Protein concentration was determined by Bradford protein assay, and protein purity was analyzed by NuPAG Novex 4-12% Bis-Tris Protein Gels (Invitrogen: NP0322BOX).
Assay Protocol • 1) A 10 mM test compound was dissolved in 100% DMSO and serially diluted 1 in 4. 100 nL of this dilution series was then added to a 384 well, v bottom polypropylene plate, excluding columns 6 and 18. 100 nL of DMSO was added to columns 6 and 18 as controls wells. […]

Question: For `[2H]C1(N2CCC(c3cc4c(cnn4-c4cc(N5C[C@H]6C[C@@H]5CO6)nc(OC)n4)cc3C)CC2)COC1` [Example E56, (1R,4R)-5-(6-(6-(1-(3-deuterooxetan-3-yl)piperidin-4-yl)-5-methyl-1H-indazol-1-yl)-2-methoxypyrimidin-4-yl)-2-oxa-5-azabicyclo[2.2.1]heptane], which “pIC50 in the full length G2019 human LRRK2 Inhibition Mass Spectrometry assay” value is on record?
Answer: ≥ 6.0

Question: How did the “pIC50 in the full length G2019 human LRRK2 Inhibition Mass Spectrometry assay” value turn out when `Cc1nc(N2C[C@H]3C[C@@H]2CO3)cc(-n2ncc3cc(C)c(C4CCN(C5COC5)CC4)cc32)n1` [Example E39, (1R,4R)-5-(2-methyl-6-(5-methyl-6-(1-(oxetan-3-yl)piperidin-4-yl)-1H-indazol-1-yl)pyrimidin-4-yl)-2-oxa-5-azabicyclo[2.2.1]heptane] was run?
Answer: ≥ 6.0

Question: `Cc1nc(N2C[C@@H]3C[C@H]2CO3)cc(-n2ncc3cc(C)c(C4CCN(C(=O)CO)CC4)cc32)n1` [Example E54, 1-(4-(1-(6-((1S,4S)-2-oxa-5-azabicyclo[2.2.1]heptan-5-yl)-2-methylpyrimidin-4-yl)-5-methyl-1H-indazol-6-yl)piperidin-1-yl)-2-hydroxyethanone] was tested. Which “pIC50 in the full length G2019 human LRRK2 Inhibition Mass Spectrometry assay” value did it give?
Answer: ≥ 6.0

Question: Which “pIC50 in the full length G2019 human LRRK2 Inhibition Mass Spectrometry assay” value does the source give for `Cc1nc(N2CC3CC2CO3)cc(-n2ncc3cc(C)c([C@H]4CC[C@@](C)(O)CC4)cc32)n1` (single isomer, unassigned) [Example E9] here?
Answer: ≥ 6.0

Molecular target: T2, LRRK2 Ser935 phosphorylation in SH-SY5Y cells over-expressing recombinant full length LRRK2 (Homo sapiens, UniProt Q5S007)
T2 construct: A BacMam virus expressing full length recombinant LRRK2 was purchased from Invitrogen; host or cells: SH-SY5Y human neuroblastoma cells transduced with BacMam LRRK2 virus
Test: Recombinant cellular LRRK2 AlphaScreen assay
Assay type: cell-based
Conditions: human neuroblastoma SH-SY5Y cells, BacMam full length LRRK2, 60 minutes with compound
Text: b. Recombinant Cellular LRRK2 AlphaScreen Assay
To determine the activity of compounds against LRRK2 kinase activity in cells, the observed LRRK2 kinase-dependent modulation of LRRK2 Ser 935 phosphorylation (Dzamko et al., 2010, Biochem. J. 430: 405-413) was utilized to develop a quantitative 384 well plate-based immunoassay of LRRK2 Ser935 phosphorylation in the human neuroblastoma cell line SH-SY5Y, engineered to over-express recombinant full length LRRK2 protein.
A BacMam virus expressing full length recombinant LRRK2 was purchased from Invitrogen and amplified by inoculation of SF-9 cells at MOI 0.3 for 4-5 days in Sf-900 III SFM medium supplemented with 3% fetal bovine serum. Infected cell cultures were then centrifuged at 2000 g for 20 minutes, viral supernatant titer determined by anti-gp64 plaque assay and stored at 4° C.
Affinity-purified anti-phospho LRRK2 Ser935 sheep polyclonal antibody (Dzamko et al., 2010, Biochem. J. 430: 405-413) was biotinylated by standard methods (PerkinElmer). Anti-LRRK2 rabbit polyclonal antibody was purchased from Novus Biologicals. AlphaScreen Protein A IgG Kit (including acceptor and donor beads) was purchased from Perkin Elmer.
SH-SY5Y cells were grown in DMEM/F12 medium with 10% dialysed fetal bovine serum and harvested by treatment with 0.5% trypsin-EDTA for 5 minutes at 37° C. followed by centrifugation at 1000 rpm for 4 minutes. The cell pellet was resuspended in Opti-MEM reduced serum media (Invitrogen) at 200,000 cells/ml and mixed with the BacMam LRRK2 virus at MOI=50. 50 μl cell solutions were then dispensed to each well of a 384-well plate and incubated at 37° C., 5% CO2 for 24 hours.
Serial dilutions of test compounds were prepared in Opti-MEM reduced serum media (Invitrogen) and 5.6 ul transferred from compound plate to cell assay plate to achieve a top final assay concentration of 10 uM. DMSO was used in certain wells as controls. Cells were incubated at 37° C., 5% CO2 for 60 minutes. The medium was then removed and cells lysed by addition of 20 ul cell lysis buffer (Cell Signaling Technology) and incubation at 4° C. for 20 minutes. 10 ul of antibody/acceptor bead mix [(1/1000 biotinylated-pS935 LRRK2 antibody, 1/1000 total-LRRK2 antibody, 1/100 Acceptor beads in AlphaScreen detection buffer (25 mM Hepes (pH 7.4), 0.5% Triton X-100, 1 mg/ml Dextran 500 and 0.1% BSA)] was then added to each well and plates incubated for 2 hours at ambient temperature in the dark. 10 μl of donor beads solution (1/33.3 donor beads in AlphaScreen detection buffer) was then added to each well. Following incubation for a further 2 hours at ambient temperature in the dark, plates were read on an EnVision™ plate reader at emission 520-620 nm with excitation 680 nm. Dose response curve data was based on sigmoidal dose-response model.

Question: Which “pIC50 in the recombinant cellular LRRK2 AlphaScreen assay” value does the source give for `COc1nc(N2C[C@@H]3C[C@H]2CO3)cc(-n2ncc3cc(Cl)c(C4CCN(C5CCOC5)CC4)cc32)n1` (single isomer, unassigned) [Example E70] here?
Answer: ≥ 6

Question: How did the “pIC50 in the recombinant cellular LRRK2 AlphaScreen assay” value turn out when `COc1nc(N2C[C@H]3C[C@@H]2CO3)cc(-n2ncc3cc(C)c(C4CCN(C5CCOC5)CC4)cc32)n1` (single isomer, unassigned) [Example E14] was run?
Answer: ≥ 6

Question: With `Cc1nc(N2C[C@H]3C[C@@H]2CO3)cc(-n2ncc3cc(C)c(C4CCN(CCC(=O)O)CC4F)cc32)n1` (single isomer, unassigned) [Example E154] as the compound, how does the “pIC50 in the recombinant cellular LRRK2 AlphaScreen assay” value read?
Answer: ≥ 7

Question: With `Cc1nc(N2C[C@@H]3C[C@H]2CO3)cc(-n2ncc3cc(C)c(C4CCN(CCO)CC4F)cc32)n1` (single isomer, unassigned) [Example E22] as the compound, how does the “pIC50 in the recombinant cellular LRRK2 AlphaScreen assay” value read?
Answer: ≥ 6

Question: `Cc1nc(N2C[C@@H]3C[C@H]2CO3)cc(-n2ncc3cc(C)c(C4CCN(C5CCOC5)CC4F)cc32)n1` (single isomer, unassigned) [Example E150] was tested. Which “pIC50 in the recombinant cellular LRRK2 AlphaScreen assay” value did it give?
Answer: ≥ 6

Question: Which “pIC50 in the recombinant cellular LRRK2 AlphaScreen assay” value does the source give for `Cc1nc(N2CC3CC(C2)C3C(=O)O)cc(-n2ncc3cc(C)c([C@H]4CC[C@@](C)(O)CC4)cc32)n1` (single isomer, unassigned) [Example E79, Cis-3-{6-[6-(4-Hydroxy-4-methyl-cyclohexyl)-5-methyl-indazol-1-yl]-2-methyl-pyrimidin-4-yl}-3-aza-bicyclo[3.1.1]heptane-6-carboxylic Acid] here?
Answer: ≥ 6

Question: `Cc1nc(N2C[C@@]3(CO)C[C@@H]2CO3)cc(-n2ncc3cc(C)c(C4CCOCC4)cc32)n1` [Example E173, ((1R,4R)-5-(2-methyl-6-(5-methyl-6-(tetrahydro-2H-pyran-4-yl)-1H-indazol-1-yl)pyrimidin-4-yl)-2-oxa-5-azabicyclo[2.2.1]heptan-1-yl)methanol] was tested. Which “pIC50 in the recombinant cellular LRRK2 AlphaScreen assay” value did it give?
Answer: ≥ 7

Question: With `COc1nc(N2C[C@@H]3C[C@H]2CO3)cc(-n2ncc3cc(C)c(C4CCN(C5CCOC5)CC4)cc32)n1` (single isomer, unassigned) [Example E16] as the compound, how does the “pIC50 in the recombinant cellular LRRK2 AlphaScreen assay” value read?
Answer: ≥ 6

Question: Which “pIC50 in the recombinant cellular LRRK2 AlphaScreen assay” value does the source give for `Cc1nc(N2CC3(CO)CC2CO3)cc(-n2ncc3cc(C)c(C4CCN(C5COC5)CC4)cc32)n1` (stereo not drawn) [Example E166, (5-(2-methyl-6-(5-methyl-6-(1-(oxetan-3-yl)piperidin-4-yl)-1H-indazol-1-yl)pyrimid-in-4-yl)-2-oxa-5-azabicyclo[2.2.1]heptan-1-yl)methanol] here?
Answer: ≥ 7

Question: `Cc1nc(N2C[C@H]3C[C@@H]2CO3)cc(-n2ncc3cc(C)c(C4CCN(CCS(C)(=O)=O)CC4)cc32)n1` [Example E170, (1R,4R)-5-(2-methyl-6-(5-methyl-6-(1-(2-(methylsulfonyl)ethyl)piperidin-4-yl)-1H-indazol-1-yl)pyrimidin-4-yl)-2-oxa-5-azabicyclo[2.2.1]heptane] was tested. Which “pIC50 in the recombinant cellular LRRK2 AlphaScreen assay” value did it give?
Answer: ≥ 7

Question: How did the “pIC50 in the recombinant cellular LRRK2 AlphaScreen assay” value turn out when `Cc1nc(N2C[C@H]3C[C@@H]2CO3)cc(-n2ncc3cc(C)c(C4CCN(C5COCC5O)CC4)cc32)n1` (single isomer, unassigned) [Example E171] was run?
Answer: ≥ 7
